Data published in US20240307439A1.
These are yes or no findings as the source states them, for the method shown. Binding calls can cover weak binding; strength is not graded here.

Sequences of proteins named here, by UniProt entry; tags and fusion partners are left off. A change or cut given only in a name is not applied to a line headed by its entry.
UniProt P55899: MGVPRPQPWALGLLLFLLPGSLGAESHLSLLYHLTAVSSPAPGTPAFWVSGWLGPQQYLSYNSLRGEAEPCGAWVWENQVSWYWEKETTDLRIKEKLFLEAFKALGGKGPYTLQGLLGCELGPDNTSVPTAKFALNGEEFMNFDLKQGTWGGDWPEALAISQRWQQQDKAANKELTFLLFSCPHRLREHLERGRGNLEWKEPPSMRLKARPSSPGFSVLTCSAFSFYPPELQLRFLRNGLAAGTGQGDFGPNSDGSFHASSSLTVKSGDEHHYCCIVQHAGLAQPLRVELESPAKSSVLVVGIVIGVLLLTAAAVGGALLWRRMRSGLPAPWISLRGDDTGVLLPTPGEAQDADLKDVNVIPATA

Key:
[1] = biological target: Biotinylated human FcRn (human) (UniProt P55899); assay: ELISA, adapter coated, biotinylated human FcRn titrated at pH 6.0 or 7.4
[2] = biological target: Biotinylated human FcRn (human) (UniProt P55899); assay: ELISA
[3] = biological target: Biotinylated human FcRn (human) (UniProt P55899); assay: ELISA, adapter coated, biotinylated human FcRn titrated at pH 6.0 or 7.4, streptavidin-HRP, A450

Measured: binding

B1: bc40-p26 Adapter (designed binder)
chain: DEHHHHHHHHHHKLENLYFQGGGGGSMGSWSEFWVRLGAIRERLDALGGSEAELAAFEKEIAAFESELQAYKGKGNPEVEKLRYTAATIRRFLQAYRHNGGGGSGGGGSGGGGSLEKCFQTENPLECQDKGEEELQKYIQESQALAKRSCGLFQKLGEYYLQNAFLVAYTKKAPQLTSSELMAITRKMAATAATCCQLSEDKLLACGEGAADIIIGHLCIRHEMTPVNPGVGQCCTSSYANRRPCFSSLVVDETYVPPAFSDDKFIFHKDLCQAQGVALQTMKQEFLINLVKQKPQITEEQLEAVIADFSGLLEKCCQGQEQEVCFAEEGQKLISKTRAALGV
binds: all assays above

B2: bc98-p26(Q26-V229)-bc98 (designed binder)
chain: DEMGSWSEFWARLGAIRERLDALGGSEAELAAFEKEIAAFESELQAYKGKGNPEVEKLRYTAGTIKRFLQAYRHNGGGGDGGGGSGGGGSGQESQALAKRSCGLFQKLGEYYLQNAFLVAYTKKAPQLTSSELMAITRKMAATAATCCQLSEDKLLACGEGAADIIIGHLCIRHEMTPVNPGVGQCCTSSYANRRPCFSSLVVDETYVPPAFSDDKFIFHKDLCQAQGVALQTMKQEFLINLVKQKPQITEEQLEAVIADFSGLLEKCCQGQEQEVCFAEEGQKLISKTRAALGVGGGGSGGGGSGGGGSMGSWSEFWARLGAIRERLDALGGSEAELAAFEKEIAAFESELQAYKGKGNPEVEKLRYTAGTIKRFLQAYRHNGGGGSGGGGSGGGGSHHHHHHHHHH
binds: all assays above
